Consider 15 targets from the supplement of paper PMC10849652.

Protein sequences, listed by entry. Tags and fused reporters are not part of them. Lines headed by an entry give the natural chain unless they say otherwise; changes in a name come on top.
UniProt P15291: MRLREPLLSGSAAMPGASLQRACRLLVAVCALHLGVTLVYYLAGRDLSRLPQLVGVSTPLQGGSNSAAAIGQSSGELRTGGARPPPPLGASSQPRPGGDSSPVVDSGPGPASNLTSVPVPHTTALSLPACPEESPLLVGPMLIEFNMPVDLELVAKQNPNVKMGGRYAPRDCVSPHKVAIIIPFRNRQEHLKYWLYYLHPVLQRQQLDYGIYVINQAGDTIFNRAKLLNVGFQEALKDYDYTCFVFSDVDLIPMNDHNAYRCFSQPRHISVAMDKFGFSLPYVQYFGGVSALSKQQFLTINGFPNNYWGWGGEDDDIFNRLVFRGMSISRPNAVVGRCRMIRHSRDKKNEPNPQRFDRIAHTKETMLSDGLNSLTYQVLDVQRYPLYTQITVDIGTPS
UniProt Q9BQE9, whole entry, looked up: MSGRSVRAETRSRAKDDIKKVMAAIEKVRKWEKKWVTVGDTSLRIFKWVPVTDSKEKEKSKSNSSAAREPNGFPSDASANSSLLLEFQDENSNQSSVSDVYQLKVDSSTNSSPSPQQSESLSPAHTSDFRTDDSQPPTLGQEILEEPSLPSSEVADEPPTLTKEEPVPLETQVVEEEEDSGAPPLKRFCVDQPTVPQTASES
UniProt Q10589, whole entry, looked up: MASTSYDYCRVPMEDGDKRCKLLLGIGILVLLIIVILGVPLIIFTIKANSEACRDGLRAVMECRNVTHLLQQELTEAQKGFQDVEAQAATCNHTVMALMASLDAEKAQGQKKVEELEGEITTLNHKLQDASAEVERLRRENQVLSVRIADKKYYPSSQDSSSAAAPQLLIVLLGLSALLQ
UniProt O95429: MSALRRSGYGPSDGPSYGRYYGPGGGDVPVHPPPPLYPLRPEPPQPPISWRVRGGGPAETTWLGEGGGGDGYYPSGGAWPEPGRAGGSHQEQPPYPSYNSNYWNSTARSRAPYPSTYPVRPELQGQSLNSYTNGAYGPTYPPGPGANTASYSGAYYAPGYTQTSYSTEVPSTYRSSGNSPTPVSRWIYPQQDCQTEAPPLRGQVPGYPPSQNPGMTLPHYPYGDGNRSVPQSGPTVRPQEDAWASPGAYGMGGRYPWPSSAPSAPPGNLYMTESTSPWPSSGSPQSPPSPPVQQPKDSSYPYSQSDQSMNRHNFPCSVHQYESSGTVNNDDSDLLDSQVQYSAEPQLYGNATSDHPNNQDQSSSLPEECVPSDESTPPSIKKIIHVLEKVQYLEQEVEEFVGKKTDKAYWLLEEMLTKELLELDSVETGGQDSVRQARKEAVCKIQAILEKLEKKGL
UniProt Q9H0E9, whole entry, looked up: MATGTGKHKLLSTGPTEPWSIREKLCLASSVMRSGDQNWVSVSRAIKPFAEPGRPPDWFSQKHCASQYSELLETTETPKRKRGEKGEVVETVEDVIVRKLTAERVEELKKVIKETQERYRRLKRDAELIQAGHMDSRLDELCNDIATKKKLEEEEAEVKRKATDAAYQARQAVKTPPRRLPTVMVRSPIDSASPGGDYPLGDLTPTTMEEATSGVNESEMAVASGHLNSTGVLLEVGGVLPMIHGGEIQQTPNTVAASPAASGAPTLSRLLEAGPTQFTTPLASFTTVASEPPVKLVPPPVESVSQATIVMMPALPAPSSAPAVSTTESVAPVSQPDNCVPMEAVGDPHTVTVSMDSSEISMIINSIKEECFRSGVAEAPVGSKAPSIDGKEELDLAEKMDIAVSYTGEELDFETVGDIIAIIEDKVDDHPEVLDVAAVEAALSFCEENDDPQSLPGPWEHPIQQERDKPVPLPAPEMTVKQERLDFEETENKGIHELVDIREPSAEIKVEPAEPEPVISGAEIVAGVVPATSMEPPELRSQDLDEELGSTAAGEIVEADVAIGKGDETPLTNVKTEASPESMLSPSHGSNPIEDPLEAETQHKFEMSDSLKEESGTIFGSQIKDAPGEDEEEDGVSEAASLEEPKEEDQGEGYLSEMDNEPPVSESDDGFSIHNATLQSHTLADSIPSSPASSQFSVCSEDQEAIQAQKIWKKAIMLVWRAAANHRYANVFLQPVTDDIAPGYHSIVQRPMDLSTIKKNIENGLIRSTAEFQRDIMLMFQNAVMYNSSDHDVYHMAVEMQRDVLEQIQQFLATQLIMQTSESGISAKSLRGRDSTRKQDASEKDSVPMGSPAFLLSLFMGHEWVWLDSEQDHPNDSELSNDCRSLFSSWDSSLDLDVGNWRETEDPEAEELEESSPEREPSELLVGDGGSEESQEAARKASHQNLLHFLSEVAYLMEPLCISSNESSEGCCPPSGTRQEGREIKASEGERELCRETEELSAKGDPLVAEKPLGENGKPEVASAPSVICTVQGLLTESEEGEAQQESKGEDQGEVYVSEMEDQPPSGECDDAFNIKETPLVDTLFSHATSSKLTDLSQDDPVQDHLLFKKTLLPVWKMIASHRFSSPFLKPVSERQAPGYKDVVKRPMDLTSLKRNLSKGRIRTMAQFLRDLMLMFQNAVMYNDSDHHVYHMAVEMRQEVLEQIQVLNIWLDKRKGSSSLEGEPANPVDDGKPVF
UniProt O95861: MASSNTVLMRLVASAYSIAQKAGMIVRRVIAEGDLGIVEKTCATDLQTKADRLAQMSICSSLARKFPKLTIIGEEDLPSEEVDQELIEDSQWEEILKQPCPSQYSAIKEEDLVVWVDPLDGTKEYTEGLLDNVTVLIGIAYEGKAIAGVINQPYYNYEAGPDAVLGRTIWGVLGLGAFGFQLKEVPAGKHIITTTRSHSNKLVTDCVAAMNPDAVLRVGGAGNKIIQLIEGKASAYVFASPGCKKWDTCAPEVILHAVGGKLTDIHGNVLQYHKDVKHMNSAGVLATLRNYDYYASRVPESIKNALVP
UniProt Q9NYM9: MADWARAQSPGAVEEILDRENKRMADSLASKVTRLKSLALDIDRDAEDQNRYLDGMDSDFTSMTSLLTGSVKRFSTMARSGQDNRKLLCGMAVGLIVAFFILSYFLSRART
UniProt Q6QNY1: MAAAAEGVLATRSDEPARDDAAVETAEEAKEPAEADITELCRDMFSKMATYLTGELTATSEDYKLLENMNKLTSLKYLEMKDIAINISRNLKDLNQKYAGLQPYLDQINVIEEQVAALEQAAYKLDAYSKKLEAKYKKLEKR
UniProt Q9HB09: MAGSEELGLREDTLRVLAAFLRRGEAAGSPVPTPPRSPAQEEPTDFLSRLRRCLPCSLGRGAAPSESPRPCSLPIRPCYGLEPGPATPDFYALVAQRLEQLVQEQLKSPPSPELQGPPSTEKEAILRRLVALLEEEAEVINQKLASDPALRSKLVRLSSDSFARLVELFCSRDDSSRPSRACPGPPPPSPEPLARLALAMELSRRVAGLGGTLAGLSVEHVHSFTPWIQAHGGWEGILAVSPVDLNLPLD
UniProt Q8N9N5: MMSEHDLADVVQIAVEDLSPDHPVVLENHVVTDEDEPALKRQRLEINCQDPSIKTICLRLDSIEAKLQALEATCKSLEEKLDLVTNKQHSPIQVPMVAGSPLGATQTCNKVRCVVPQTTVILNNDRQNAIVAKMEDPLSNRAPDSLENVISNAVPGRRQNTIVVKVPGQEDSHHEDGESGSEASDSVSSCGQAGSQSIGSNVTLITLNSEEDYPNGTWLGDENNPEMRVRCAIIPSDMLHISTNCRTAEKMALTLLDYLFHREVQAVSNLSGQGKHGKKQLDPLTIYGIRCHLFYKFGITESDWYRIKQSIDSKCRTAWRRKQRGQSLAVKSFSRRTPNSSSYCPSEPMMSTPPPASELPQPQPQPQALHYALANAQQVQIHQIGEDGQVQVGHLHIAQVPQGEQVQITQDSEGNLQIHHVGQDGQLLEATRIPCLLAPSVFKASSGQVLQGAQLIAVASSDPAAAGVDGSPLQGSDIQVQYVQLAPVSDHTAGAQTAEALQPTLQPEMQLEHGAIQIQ
UniProt Q8WUW1: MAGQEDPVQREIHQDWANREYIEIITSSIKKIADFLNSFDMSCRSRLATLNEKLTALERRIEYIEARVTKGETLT
UniProt P54132: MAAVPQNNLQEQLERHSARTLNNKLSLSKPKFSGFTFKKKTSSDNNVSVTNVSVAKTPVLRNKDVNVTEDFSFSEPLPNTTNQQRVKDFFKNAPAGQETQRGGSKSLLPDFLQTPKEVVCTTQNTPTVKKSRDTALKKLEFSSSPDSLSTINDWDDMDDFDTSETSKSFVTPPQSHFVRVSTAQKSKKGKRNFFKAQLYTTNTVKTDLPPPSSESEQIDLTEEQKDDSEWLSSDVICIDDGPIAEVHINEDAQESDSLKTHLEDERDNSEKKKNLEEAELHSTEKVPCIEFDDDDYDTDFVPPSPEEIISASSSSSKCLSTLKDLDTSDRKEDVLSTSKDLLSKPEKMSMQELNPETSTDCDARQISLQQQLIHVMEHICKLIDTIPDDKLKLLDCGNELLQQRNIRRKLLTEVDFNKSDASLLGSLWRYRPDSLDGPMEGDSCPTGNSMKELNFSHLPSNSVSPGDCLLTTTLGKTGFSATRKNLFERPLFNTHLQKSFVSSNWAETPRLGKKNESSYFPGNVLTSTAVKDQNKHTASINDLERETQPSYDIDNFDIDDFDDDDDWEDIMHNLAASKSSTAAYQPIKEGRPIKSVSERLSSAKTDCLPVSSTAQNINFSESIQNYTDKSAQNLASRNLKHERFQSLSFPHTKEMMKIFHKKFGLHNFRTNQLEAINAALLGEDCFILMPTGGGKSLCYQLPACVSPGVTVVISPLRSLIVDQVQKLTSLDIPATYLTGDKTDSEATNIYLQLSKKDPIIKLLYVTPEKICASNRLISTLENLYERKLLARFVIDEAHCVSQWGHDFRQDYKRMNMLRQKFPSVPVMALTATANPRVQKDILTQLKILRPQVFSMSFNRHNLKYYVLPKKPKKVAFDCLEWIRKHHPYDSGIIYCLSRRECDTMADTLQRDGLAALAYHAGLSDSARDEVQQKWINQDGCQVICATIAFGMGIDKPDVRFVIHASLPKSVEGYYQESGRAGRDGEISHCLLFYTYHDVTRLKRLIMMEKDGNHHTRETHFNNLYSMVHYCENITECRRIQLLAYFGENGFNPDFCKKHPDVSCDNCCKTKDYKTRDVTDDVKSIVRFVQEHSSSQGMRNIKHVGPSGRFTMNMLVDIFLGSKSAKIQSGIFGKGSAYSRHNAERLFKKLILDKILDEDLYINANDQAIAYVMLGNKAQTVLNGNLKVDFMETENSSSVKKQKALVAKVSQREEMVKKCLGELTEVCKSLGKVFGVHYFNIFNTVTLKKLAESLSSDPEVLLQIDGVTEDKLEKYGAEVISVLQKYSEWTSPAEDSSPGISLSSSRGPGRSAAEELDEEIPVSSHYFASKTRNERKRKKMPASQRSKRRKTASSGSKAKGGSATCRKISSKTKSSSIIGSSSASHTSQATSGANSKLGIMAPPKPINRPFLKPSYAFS
UniProt O15382: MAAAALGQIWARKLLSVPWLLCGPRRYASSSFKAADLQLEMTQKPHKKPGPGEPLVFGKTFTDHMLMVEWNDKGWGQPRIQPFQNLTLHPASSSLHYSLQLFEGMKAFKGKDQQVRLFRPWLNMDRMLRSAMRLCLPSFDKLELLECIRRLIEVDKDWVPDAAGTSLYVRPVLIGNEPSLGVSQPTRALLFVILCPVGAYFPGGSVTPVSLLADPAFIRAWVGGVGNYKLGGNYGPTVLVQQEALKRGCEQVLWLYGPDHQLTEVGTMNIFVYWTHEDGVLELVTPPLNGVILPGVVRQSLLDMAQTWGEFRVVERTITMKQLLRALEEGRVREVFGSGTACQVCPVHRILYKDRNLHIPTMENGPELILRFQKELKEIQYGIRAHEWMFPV

Some of the results follow.

Holding throughout (assay): log2 fold change, soluble protein after heating vs DMSO (PISA); higher = thermal stabilisation; K562 lysate, 10 uM; active = over 0.2 and 3.5 SD of the protein, either way, in both replicates (recomputed)
Compound in test [1]: CCCS(=O)(=O)Nc1ccc(F)c(C(=O)c2c[nH]c3ncc(-c4ccc(Cl)cc4)cc23)c1F [vemurafenib]
In a few lines:
(§1)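 Log-two fold change in thermal stability relative to solvent controls is reported from duplicates. For each sample, crude K562 extract from dounce-homogenised pellets in PBS pH 7.4 with 1 mM MgCl2, at 1 mg/mL protein, was treated with 10 μM compound for 30 min. Aliquots heated for 3 min across 48°C-58°C were pooled, brought to 0.5% NP-40 at 4°C and cleared at 21,000xg for 90 min. The supernatant was quantified by TMTpro 16plex LC-MS/MS with channel sums equalised.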

Compound in test [2]: CCCS(=O)(=O)Nc1ccc(F)c(C(=O)c2c[nH]c3ncc(Cl)cc23)c1F
A digest of the protocol: as §1

Compound in test [3]: CCN(CCCOc1ccc2c(Nc3cc(CC(=O)Nc4cccc(F)c4)[nH]n3)ncnc2c1)CCOP(=O)(O)O [barasertib]
In a few lines:
as §1

Compound in test [4]: CC[C@@H]1C(=O)N(C)c2cnc(Nc3ccc(C(=O)NC4CCN(C)CC4)cc3OC)nc2N1C1CCCC1
A digest of the protocol:
as §1

Compound in test [5]: CC[C@@H]1C(=O)N(C)c2cnc(Nc3ccc(C(=O)N[C@H]4CC[C@H](N5CCN(CC6CC6)CC5)CC4)cc3OC)nc2N1C(C)C [volasertib]
In a few lines: as §1

Compound in test [6]: CCn1c(C(=O)N(C2CC2)C2CC2)cc2c3c(ncn3C)c(Nc3cc(C)n(C)n3)nc21
A digest of the protocol:
as §1

Compound in test [7]: CCn1cc(-c2ccnc3[nH]c(-c4cccc(CN(C)C)c4)cc23)c(-c2ccc(NC(=O)N(C)C)cc2)n1
In a few lines: as §1

Compound in test [8]: CN1CCC(CNc2ccc3ncc(-c4cccc(OC(F)(F)F)c4)n3n2)CC1
A digest of the protocol:
as §1

Compound in test [9]: CN1CCN(c2nc(C3=C(c4c[nH]c5ccccc45)C(=O)NC3=O)c3ccccc3n2)CC1 [sotrastaurin]
A digest of the protocol: as §1

Compound in test [10]: CN1CCN(CCOc2cc(OC3CCOCC3)c3c(Nc4c(Cl)ccc5c4OCO5)ncnc3c2)CC1 [saracatinib]
In a few lines: as §1

Consider B4GALT1 (UniProt P15291), for which the log2 fold change is inactive: -0.025 in test [1]; inactive: 0 in test [2]; inactive: 0.002 in [3]; inactive: -0.031 in [4]; inactive: -0.036 in [5]; inactive: -0.082 in test [6]. Also, the log2 fold change in test [7] was inactive: 0.021; in [8], inactive: -0.022; in test [9], inactive: -0.053.

Turning to BCL7B (UniProt Q9BQE9), the log2 fold change in [1] is inactive: 0.107; in test [2], inactive: -0.001; in [3] it was inactive: -0.347; in [4], inactive: -0.012; in test [5] it was inactive: 0.124; in [6], inactive: 0.066. The log2 fold change is inactive: 0.334 in test [7], inactive: -0.271 in test [8], inactive: 0.039 in test [10] and inactive: 0.058 in [9].

Consider BST2 (UniProt Q10589), for which the log2 fold change in test [1] is inactive: -0.015; in test [2], inactive: -0.021; in test [3] it was inactive: 0.009; in test [4] it was inactive: 0; in [5], inactive: 0.001; in [6], inactive: 0. The log2 fold change in [7] was inactive: -0.061; in test [8], inactive: 0.057; in test [10], inactive: 0.037; in [9], inactive: 0.002.

For BAG4 (UniProt O95429), the log2 fold change in test [1] is inactive: -0.055; in test [2] it was inactive: 0; in [3], inactive: 0.048; in test [4], inactive: 0.004; in test [5], inactive: -0.003; in test [6] it was inactive: 0.036. Moreover, the log2 fold change in [7] is inactive: -0.037; in test [8], inactive: 0.102; in test [10], inactive: 0.018; in test [9], inactive: -0.043.

For the target BRD8 isoform 2 (UniProt Q9H0E9), the log2 fold change is inactive: -0.024 in test [1]; inactive: 0.055 in test [2]; inactive: 0 in test [3]; inactive: 0.04 in test [4]; inactive: 0.01 in test [5]; inactive: -0.007 in test [6]. The log2 fold change in test [7] was inactive: 0.015; in test [8], inactive: 0.005; in test [10], inactive: -0.014; in test [9], inactive: 0.017.

BCKDK (UniProt O14874): the log2 fold change is inactive: -0.036 in [1]; inactive: 0.002 in test [2]; inactive: -0.028 in [3]; inactive: 0.203 in [4]; inactive: -0.037 in [5]; inactive: 0.067 in test [6]. Moreover, the log2 fold change in test [7] was inactive: -0.033; in test [8] it was inactive: 0.059; in [10], inactive: 0.031; in test [9], inactive: 0.028.

As to BPNT1 (UniProt O95861), the log2 fold change in [1] was inactive: -0.012; in test [2] it was inactive: -0.002; in test [3] it was inactive: 0.011; in test [4], inactive: 0.012; in test [5], inactive: 0.014; in test [6] it was inactive: -0.012. Besides, the log2 fold change in test [7] is inactive: 0.043; in test [8] it was inactive: 0.006; in [10], inactive: -0.074; in test [9], inactive: -0.07.

Take BET1L (UniProt Q9NYM9): the log2 fold change was inactive: 0.054 in [1]; inactive: 0.04 in [2]; inactive: -0.005 in [3]; inactive: 0.027 in test [4]; inactive: -0.111 in [5]; inactive: 0.027 in test [6]. Also, the log2 fold change was inactive: 0.098 in test [7], inactive: -0.122 in test [8], inactive: 0.056 in test [10] and inactive: -0.08 in [9].

Regarding BLOC1S2 (UniProt Q6QNY1), the log2 fold change in test [1] is inactive: 0.097; in test [2] it was inactive: -0.009; in [3] it was inactive: 0.082; in test [4], inactive: 0.102; in [5], inactive: 0.057; in test [7], inactive: -0.032. Also, the figures for the log2 fold change in test [8], in [10] and in [9] were inactive: 0.146, inactive: -0.081 and inactive: 0.315, respectively.

Regarding BCL2L12 (UniProt Q9HB09), the log2 fold change in test [1] was inactive: -0.032; in test [2], inactive: 0.08; in [3] it was inactive: 0.166; in test [4] it was inactive: 0.013; in test [5] it was inactive: -0.06; in test [6], inactive: 0.087. Further, the log2 fold change in [7] is inactive: 0.018; in test [8] it was inactive: 0.116; in test [10] it was inactive: 0.057; in test [9], inactive: -0.007.

As to BANP (UniProt Q8N9N5), the log2 fold change in test [1] was inactive: -0.076; in test [2], inactive: 0.088; in test [3], inactive: -0.04; in test [4], inactive: 0.03; in test [5] it was inactive: -0.05; in [6], inactive: -0.1. Moreover, the log2 fold change is inactive: -0.001 in [7], inactive: -0.106 in [8], inactive: 0.039 in [10] and inactive: 0.006 in [9].

Turning to BRK1 isoform 2 (UniProt Q8WUW1), the log2 fold change in [1] is inactive: -0.006; in test [2], inactive: -0.023; in test [3] it was inactive: -0.039; in [4], inactive: 0.037; in [5], inactive: 0.06; in [6] it was inactive: 0.078. Further, the log2 fold change in test [7] is inactive: 0.042; in [8] it was inactive: -0.068; in test [10], inactive: 0.011; in test [9] it was inactive: -0.006.

With BLM (UniProt P54132), the log2 fold change is inactive: 0.007 in [1]; inactive: 0.013 in [2]; inactive: -0.071 in [3]; inactive: -0.063 in test [4]; inactive: -0.029 in test [5]; inactive: 0.054 in [6]. Further, the log2 fold change in [7] was inactive: 0.247; in test [8] it was inactive: -0.14; in test [10], inactive: -0.014; in [9], inactive: -0.01.

Take BCAT2 (UniProt O15382): the log2 fold change is inactive: -0.002 in test [1]; inactive: 0.003 in test [2]; inactive: -0.019 in [3]; inactive: 0.017 in test [4]; inactive: 0.017 in test [5]; inactive: 0.016 in [6]. In addition, the log2 fold change in test [7] is inactive: 0.066; in test [8], inactive: 0.039; in [10] it was inactive: -0.005; in [9] it was inactive: -0.024.

Regarding BORCS5 (UniProt Q969J3), the log2 fold change is inactive: 0.044 in test [1]; inactive: 0.005 in test [2]; active: 0.201 in test [3]; inactive: 0.057 in test [4]; inactive: 0.027 in test [5]; inactive: -0.01 in test [6]. Besides, the log2 fold change in [7] was inactive: 0.075; in [8], inactive: -0.055; in test [10], inactive: 0.013; in test [9], inactive: 0.017.
